Measured values: PMC11213201
No constants are given. Whether binding was seen depends on the method and setting. In cells and extracts the contact can be indirect. Here binding means that the protein was enriched with, or labelled near, the bait; the list need not be complete.

Protein sequences, listed by entry. Tags and fused reporters are not part of them.
UniProt Q9BQ24: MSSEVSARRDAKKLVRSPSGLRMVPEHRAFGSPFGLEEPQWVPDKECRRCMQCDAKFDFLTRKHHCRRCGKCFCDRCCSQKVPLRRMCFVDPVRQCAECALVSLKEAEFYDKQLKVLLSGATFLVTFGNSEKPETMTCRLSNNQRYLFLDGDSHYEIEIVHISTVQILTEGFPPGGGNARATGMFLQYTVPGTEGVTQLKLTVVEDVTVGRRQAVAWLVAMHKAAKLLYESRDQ

Target: ZFYVE21-GFP (UniProt Q9BQ24)
Test: affinity purification with mass spectrometry; GFP-Trap agarose pulldown from ZFYVE21-GFP HUVECs treated with vehicle or PRA 25% v/v; trypsin digestion, label-free MS-LC; three preparations

B1: Rab5B (protein, UniProt P61020 1-215)
chain: MTSRSTARPNGQPQASKICQFKLVLLGESAVGKSSLVLRFVKGQFHEYQESTIGAAFLTQSVCLDDTTVKFEIWDTAGQERYHSLAPMYYRGAQAAIVVYDITNQETFARAKTWVKELQRQASPSIVIALAGNKADLANKRMVEYEEAQAYADDNSLLFMETSAKTAMNVNDLFLAIAKKLPKSEPQNLGGAAGRSRGVDLHEQSQQNKSQCCSN
Q: For B1, which binding is on record?
A: binds
